Laboratory results from patent US8859569B2, “Substituted annellated pyrimidines and use thereof” (Bayer Pharma Aktiengesellschaft, priority 2011, dated 2014).
At least one compound was matched to its structure with a doubt left.

Target: T1, recombinant guanylate cyclase reporter cell line (Rattus norvegicus, UniProt P19686+P20595)
T1 construct: expressed in transfected cells
T1 sequence (P20595 1-619): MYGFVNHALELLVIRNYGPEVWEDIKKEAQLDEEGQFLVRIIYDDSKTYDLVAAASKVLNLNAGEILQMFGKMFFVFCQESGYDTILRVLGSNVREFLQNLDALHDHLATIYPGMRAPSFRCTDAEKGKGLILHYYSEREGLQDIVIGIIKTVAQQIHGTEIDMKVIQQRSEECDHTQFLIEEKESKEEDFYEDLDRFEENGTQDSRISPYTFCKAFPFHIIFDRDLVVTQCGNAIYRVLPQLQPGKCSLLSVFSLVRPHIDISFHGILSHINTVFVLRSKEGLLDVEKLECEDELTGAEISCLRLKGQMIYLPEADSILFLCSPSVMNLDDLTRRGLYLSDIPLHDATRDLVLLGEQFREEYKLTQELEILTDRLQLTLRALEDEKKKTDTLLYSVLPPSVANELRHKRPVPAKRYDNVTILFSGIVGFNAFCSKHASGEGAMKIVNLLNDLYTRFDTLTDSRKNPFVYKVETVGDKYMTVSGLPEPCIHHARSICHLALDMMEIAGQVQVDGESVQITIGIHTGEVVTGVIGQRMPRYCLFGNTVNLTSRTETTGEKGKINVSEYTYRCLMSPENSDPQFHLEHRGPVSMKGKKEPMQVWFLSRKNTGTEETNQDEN
T1 sequence (P19686 1-690): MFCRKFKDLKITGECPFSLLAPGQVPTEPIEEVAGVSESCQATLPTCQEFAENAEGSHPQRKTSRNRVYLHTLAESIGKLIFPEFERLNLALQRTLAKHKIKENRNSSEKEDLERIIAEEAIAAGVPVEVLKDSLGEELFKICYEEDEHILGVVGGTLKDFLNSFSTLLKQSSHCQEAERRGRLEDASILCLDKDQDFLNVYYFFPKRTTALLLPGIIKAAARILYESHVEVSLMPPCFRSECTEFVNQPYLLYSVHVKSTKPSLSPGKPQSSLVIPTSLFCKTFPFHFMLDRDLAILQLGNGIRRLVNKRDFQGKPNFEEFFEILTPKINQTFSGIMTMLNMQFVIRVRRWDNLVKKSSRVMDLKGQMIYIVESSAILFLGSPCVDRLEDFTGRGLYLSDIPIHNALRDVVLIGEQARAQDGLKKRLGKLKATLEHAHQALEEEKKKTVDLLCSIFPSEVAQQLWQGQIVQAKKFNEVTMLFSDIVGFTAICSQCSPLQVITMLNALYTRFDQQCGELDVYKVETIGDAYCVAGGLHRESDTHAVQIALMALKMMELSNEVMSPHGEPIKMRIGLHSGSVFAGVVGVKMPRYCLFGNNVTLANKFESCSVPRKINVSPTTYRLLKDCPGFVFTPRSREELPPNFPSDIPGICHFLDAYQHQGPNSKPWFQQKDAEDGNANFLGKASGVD
Test: Action on recombinant guanylate cyclase reporter cell line
Type: cell-based
Procedure: B-2. Action on Recombinant Guanylate Cyclase Reporter Cell Line
The cellular action of the compounds according to the invention is determined on a recombinant guanylate cyclase reporter cell line, as described in F. Wunder et al., Anal. Biochem. 339, 104-112 (2005).

Structure (SMILES)	MEC (minimal effective concentration)
CC1(C)C(=O)Nc2nc(-c3nn(Cc4ccccc4F)c4ncc(F)cc34)nc(NCC(N)C(F)(F)F)c21 (stereo not shown) [Example 6, 4-[(2-Amino-3,3,3-trifluoropropyl)amino]-2-[5-fluoro-1-(2-fluorobenzyl)-1H-pyrazolo[3,4-b]pyridin-3-yl]-5,5-dimethyl-5,7-dihydro-6H-pyrrolo[2,3-d]pyrimidin-6-one]	0.1 μm
C[C@@H](O)CNc1nc(-c2nn(Cc3ccccc3F)c3ncccc23)nc2c1C(C)(C)C(=O)N2 [Example 57, 2-[1-(2-fluorobenzyl)-1H-pyrazolo[3,4-b]pyridin-3-yl]-4-[(2-hydroxypropyl)amino]-5,5-dimethyl-5,7-dihydro-6H-pyrrolo[2,3-d]pyrimidin-6-one]	0.1 μm
CCOC(=O)C1(C)C(=O)Nc2nc(-c3nn(Cc4ccccc4F)c4ncccc34)nc(O)c21 (stereo not shown) [Example 101, Ethyl-2-[1-(2-fluorobenzyl)-1H-pyrazolo[3,4-b]pyridin-3-yl]-4-hydroxy-5-methyl-6-oxo-6,7-dihydro-5H-pyrrolo[2,3-d]pyrimidine-5-carboxylate]	0.03 μm
CC1(C)C(=O)Nc2nc(-c3nn(Cc4cccc(F)c4F)c4ncc(F)cc34)nc(OCCC(F)(F)F)c21 [Example 110, 2-[1-(2,3-Difluorobenzyl)-5-fluoro-1H-pyrazolo[3,4-b]pyridin-3-yl]-5,5-dimethyl-4-(3,3,3-trifluoropropoxy)-5,7-dihydro-6H-pyrrolo[2,3-d]pyrimidin-6-one]	1.0 μm
